This note sets out measurements from the supplement of paper PMC8728848.

Common to all, as to assay: glycan array binding signal (z-score within array); higher = stronger binding
Settings in all cases: glycan notation: IUPAC condensed, linker removed

For assay [1], the target named is Gal(b1-4)GlcNAc(b1-2)[Gal(b1-4)GlcNAc(b1-4)]Man(a1-3)[GlcNAc(b1-4)][Gal(b1-4)GlcNAc(b1-2)Man(a1-6)]Man(b1-4)GlcNAc(b1-4)GlcNAc. The method in brief: (§1)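 Glycan array binding is given as a within-array Z-score, which can be read as non-binding when negative. The arrays, 3228 of them, came from the Consortium for Functional Glycomics database and were retained only where the protein sequence was available. Z-scores were averaged across arrays of the same protein sequence at different concentrations or buffers and across linkers.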

Assay [2] deals with Gal(b1-4)GlcNAc(b1-2)[Gal(b1-4)GlcNAc(b1-4)]Man(a1-3)[GlcNAc(b1-4)][Gal(b1-4)GlcNAc(b1-2)[Gal(b1-4)GlcNAc(b1-6)]Man(a1-6)]Man(b1-4)GlcNAc(b1-4)GlcNAc. The method in brief:
as §1

Assay [3] addresses Gal(b1-4)GlcNAc(b1-2)[Gal(b1-4)GlcNAc(b1-6)]Man(a1-6)[Gal(b1-4)GlcNAc(b1-2)Man(a1-3)]Man(b1-4)GlcNAc(b1-4)GlcNAc. In outline: as §1
Assay [4] deals with Gal(b1-4)GlcNAc(b1-2)[Gal(b1-4)GlcNAc(b1-6)]Man(a1-6)[Gal(b1-4)GlcNAc(b1-2)Man(a1-3)]Man(b1-4)GlcNAc(b1-4)[Fuc(a1-6)]GlcNAc. The method in brief: as §1
The target of assay [5] is Gal(b1-4)GlcNAc(b1-2)[Gal(b1-4)GlcNAc(b1-6)]Man(a1-6)[GlcNAc(b1-4)][Gal(b1-4)GlcNAc(b1-2)Man(a1-3)]Man(b1-4)GlcNAc(b1-4)GlcNAc. The method in brief: as §1
For assay [6], the target named is Gal(b1-4)GlcNAc(b1-2)[Gal(b1-4)GlcNAc(b1-6)]Man(a1-6)[GlcNAc(b1-4)][Gal(b1-4)GlcNAc(b1-2)[Gal(b1-4)GlcNAc(b1-4)]Man(a1-3)]Man(b1-4)GlcNAc(b1-4)[Fuc(a1-6)]GlcNAc. In outline: as §1
The target of assay [7] is Gal(b1-4)GlcNAc(b1-3)Gal(b1-3)GalNAc. The method in brief: as §1
Assay [8] addresses Gal(b1-4)GlcNAc(b1-3)Gal(b1-3)GlcNAc. In outline: as §1
For assay [9], the target named is Gal(b1-4)GlcNAc(b1-3)Gal(b1-4)Glc. The method in brief:
as §1

Assay [10] deals with Gal(b1-4)GlcNAc(b1-3)Gal(b1-4)GlcNAc. The method in brief:
as §1

Assay [11] has as its target Gal(b1-4)GlcNAc(b1-3)Gal(b1-4)GlcNAc(b1-2)Man(a1-3)[Gal(b1-4)GlcNAc(b1-3)Gal(b1-4)GlcNAc(b1-2)Man(a1-6)]Man(b1-4)GlcNAc(b1-4)GlcNAc. The method in brief:
as §1

In assay [12] the target is Gal(b1-4)GlcNAc(b1-3)Gal(b1-4)GlcNAc(b1-2)Man(a1-3)[Gal(b1-4)GlcNAc(b1-3)Gal(b1-4)GlcNAc(b1-2)Man(a1-6)]Man(b1-4)GlcNAc(b1-4)[Fuc(a1-6)]GlcNAc. The method in brief: as §1
Assay [13] has as its target Gal(b1-4)GlcNAc(b1-3)Gal(b1-4)GlcNAc(b1-2)[Gal(b1-4)GlcNAc(b1-3)Gal(b1-4)GlcNAc(b1-6)]Man(a1-6)[Gal(b1-4)GlcNAc(b1-3)Gal(b1-4)GlcNAc(b1-2)Man(a1-3)]Man(b1-4)GlcNAc(b1-4)GlcNAc. In outline: as §1
Assay [14] deals with Gal(b1-4)GlcNAc(b1-3)Gal(b1-4)GlcNAc(b1-2)[Gal(b1-4)GlcNAc(b1-3)Gal(b1-4)GlcNAc(b1-6)]Man(a1-6)[Gal(b1-4)GlcNAc(b1-3)Gal(b1-4)GlcNAc(b1-2)Man(a1-3)]Man(b1-4)GlcNAc(b1-4)[Fuc(a1-6)]GlcNAc. The method in brief: as §1
Assay [15] deals with Gal(b1-4)GlcNAc(b1-3)Gal(b1-4)GlcNAc(b1-3)Gal(b1-4)GlcNAc. In outline:
as §1

The target of assay [16] is Gal(b1-4)GlcNAc(b1-3)Gal(b1-4)GlcNAc(b1-3)Gal(b1-4)GlcNAc(b1-2)Man(a1-3)[Gal(b1-4)GlcNAc(b1-3)Gal(b1-4)GlcNAc(b1-3)Gal(b1-4)GlcNAc(b1-2)Man(a1-6)]Man(b1-4)GlcNAc(b1-4)GlcNAc. In outline: as §1
The target in assay [17] is Gal(b1-4)GlcNAc(b1-3)Gal(b1-4)GlcNAc(b1-3)Gal(b1-4)GlcNAc(b1-2)Man(a1-3)[Gal(b1-4)GlcNAc(b1-3)Gal(b1-4)GlcNAc(b1-3)Gal(b1-4)GlcNAc(b1-2)Man(a1-6)]Man(b1-4)GlcNAc(b1-4)[Fuc(a1-6)]GlcNAc. The method in brief: as §1
Assay [18] concerns the target Gal(b1-4)GlcNAc(b1-3)Gal(b1-4)GlcNAc(b1-3)Gal(b1-4)GlcNAc(b1-2)[Gal(b1-4)GlcNAc(b1-3)Gal(b1-4)GlcNAc(b1-3)Gal(b1-4)GlcNAc(b1-6)]Man(a1-6)[Gal(b1-4)GlcNAc(b1-3)Gal(b1-4)GlcNAc(b1-3)Gal(b1-4)GlcNAc(b1-2)Man(a1-3)]Man(b1-4)GlcNAc(b1-4)[Fuc(a1-6)]GlcNAc. The method in brief:
as §1

For assay [19], the target named is Gal(b1-4)GlcNAc(b1-3)Gal(b1-4)GlcNAc(b1-3)Gal(b1-4)GlcNAc(b1-3)Gal(b1-4)GlcNAc(b1-2)Man(a1-3)[Gal(b1-4)GlcNAc(b1-3)Gal(b1-4)GlcNAc(b1-3)Gal(b1-4)GlcNAc(b1-3)Gal(b1-4)GlcNAc(b1-2)Man(a1-6)]Man(b1-4)GlcNAc(b1-4)GlcNAc. The method in brief: as §1

The list shows a part of the results.

B1: TAL6-4LysM (Trichoderma atroviride) (protein)
chain: AADSIPSISPTGIITPTPTQSGMVSNCNKFYDVHSNDGCSAIASSQHVDLSSLYKWNPAIKTDCSGLQASVYVCIGILTTSMSTTSKLPTTTSKPSTTSKPPTGITTPTPTQSGMVKNCNKFYDVHSGDGCSAIASSQKVNLSSFYLWNPAVKTDCSGLQASVFVCIGTLTTSMSTTTSKLPTTTSKPSTTSKPPTGIITPTPTQNGMVKNCNKFYDVHSGDGCSAIASSQKVNLSSFYLWNPAVKTDCSGLQASVFVCVGTATTTTAAGITTPTPTQSGMVSGCNKFYDVHAGDGCSAIASSQKIALSSLYKWNPAVKTDCSGLQASVYICIGVGNAAAARVTGALEQKLISEEDLNSAVDHHHHHH
For the molecule B1, the “glycan array binding signal (z-score)” value in assay [1] is -0.088; in assay [2], -0.822; in [3] it was -0.699; in [4], 0.291; in [5], -1.06; in assay [6], -0.429. For the same molecule, the “glycan array binding signal (z-score)” value is -0.484 in assay [7]; -0.823 in assay [8]; -0.779 in [9]; 0.031 in [10]; 0.103 in [11]; -0.014 in assay [12]. Besides, the “glycan array binding signal (z-score)” value is -0.104 in [13]; 0.236 in assay [14]; -0.692 in assay [15]; -0.372 in assay [16]; 0.792 in assay [17]; -0.238 in assay [18]. Besides, the “glycan array binding signal (z-score)” value in assay [19] was -1.34.
